This note sets out measurements from PubChem BioAssay AID1487 (National Center for Advancing Translational Sciences (NCATS), 2009).

The other results are listed elsewhere or left out. Further columns of the screen follow, without active or inactive calls. The list favours compounds with an active or inconclusive main result. Words in brackets tell the shape of the fitted curve; partial curves, single points and poor fits give uncertain potencies.

The assay can be described thus: qHTS Assay for Modulators of Lamin A Splicing. Conditions: HeLa LMNA splicing GFP/RFP minigene ratio, 48 h. Summed up: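 S3 HeLa stable clones carrying a lamin A-EGFP splicing minigene plus DsRed2 were seeded at 600 cells/well in Opti-MEM with 2% FBS, pin-dosed and incubated 48 h at 37°C. Acumen cytometry (488 nm) gave the GFP/RFP total-intensity ratio.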
Where [1] appears, read: measured here: RFP viability control channel.
Setting [2] is: measured here: GFP splicing reporter channel.

`CC1Cc2ccccc2N1C(=O)CSc1nc2c(c(=O)n(C)c(=O)n2C)n1Cc1ccccc1` (stereo not given): the AC50 under setting [1] is 20 µM [rising, single point].
`O=C(NCCS(=O)(=O)N1CCN(c2ccc(F)cc2)CC1)c1cccc(C(F)(F)F)c1`: under setting [2], the AC50 was 0.891 µM [falling, full curve, poor fit].
The same measure, in the same setting: as for `Cc1cc(C)n(/N=C/c2cc(Cl)cc(Cl)c2O)c(=O)c1`, the figure is 22.4 µM [falling, single point].
On the same count and under the same terms, as for `Cc1cc(C)n2nc(/C(C#N)=C/c3ccccn3)c(C#N)c2n1`, the figure is 25.1 µM [falling, single point].
With `O=C(NCC1CCCO1)c1sc(=S)n2c1[nH]c(=O)c1ccc(C(=O)N3CCCCC3)cc12` (stereo not given), the AC50 was 6.31 µM [rising, partial curve, poor fit] under setting [2] and 1.58 µM [rising, full curve] under setting [1].
As to `O=C(c1ccccc1)N1CCN(C(=S)NCc2ccc3c(c2)OCO3)CC1`, the AC50 under setting [1] is 0.00794 µM [rising, full curve, poor fit].
For the compound `COC(=O)c1c(-c2ccc(Br)cc2)csc1NC(=O)Cc1ccc(OC)c(OC)c1`, the concentration at half-maximal activity (AC50) is 14.1 µM [rising, partial curve] under setting [2] and 11.2 µM [rising, partial curve] under setting [1].
As for `Cc1ccc(N2C(=O)c3cccc4c(Oc5ccccc5[N+](=O)[O-])ccc(c34)C2=O)c(C)c1`, the AC50 is 3.55 µM [rising, full curve] under setting [2] and 7.08 µM [rising, full curve] under setting [1].
With `c1ccc(CN(CC2=NCCN2)c2ccccc2)cc1`, the AC50 is, setting by setting: under setting [2], 0.126 µM [falling, full curve, poor fit]; under setting [1], 0.00251 µM [falling, full curve, poor fit].
As to `O=C(NCc1cccnc1)c1ccc(COc2ccccc2Br)o1`, the half-maximal activity concentration (AC50) under setting [1] is 35.5 µM [rising, single point].
`COc1ccc(-n2c(SCC(=O)Nc3cccc(C)c3C)nc3c([nH]c4ccccc43)c2=O)cc1`: the concentration at half-maximal activity (AC50) under setting [1] was 7.94 µM [falling, partial curve].
For `Cc1ccc(C(=O)Nc2cccc(Oc3ccccc3)c2)o1`, the AC50 under setting [1] is 35.5 µM [rising, single point].
Same read-out and setting: the figure for `C=CCN(C(=O)c1cccc(S(=O)(=O)N2CCN(C)CC2)c1)c1nc(-c2ccccc2)cs1` is 12.6 µM [rising, partial curve].
As to `O=S(=O)(Nc1cc(F)ccc1F)c1ccc2[nH]c3c(c2c1)CCCCC3`, the AC50 runs as follows: under setting [2], 28.2 µM [falling, single point]; under setting [1], 25.1 µM [falling, single point].
On to `FC(F)(F)c1ccc2c(c1)[nH]c(=S)n2C1CC1`, for which the half-maximal activity concentration (AC50) under setting [2] was 0.01 µM [rising, full curve, poor fit].
The same measure, in the same setting: as for `O=C(Nc1cccnc1)c1cc(-c2ccc(F)cc2)on1`, the figure is 2.24 µM [rising, partial curve].
Consider `Fc1ccc(Nc2nc(SCc3ccccc3F)nc3ccccc23)cc1`, for which the AC50 was 11.2 µM [falling, partial curve] under setting [2] and 12.6 µM [falling, partial curve, poor fit] under setting [1].
In the case of `C/C(Cl)=C/Cn1c(=O)c2c(nc(Br)n2Cc2ccccc2)n(C)c1=O`, the AC50 under setting [1] was 0.0316 µM [rising, full curve, poor fit].
For `Cc1nc2cc(C(=O)NC3CCCCCC3)ccc2n1-c1ccc(Br)cc1`, under setting [2], the AC50 is 0.0158 µM [falling, full curve, poor fit].
With `COc1ccc(C(=O)C2CCCN(C(=O)CCC3=NNC(=O)CC3)C2)c(C)c1` (stereo not given), the AC50 under setting [1] is 0.00316 µM [falling, full curve, poor fit].
Still for that read-out and setting: as for `Cc1ccc([N+](=O)[O-])c(C)[n+]1C`, the figure is 0.158 µM [rising, partial curve, poor fit]; as for `Cc1ccc(C)c(N2CCN(C(=O)CSc3ccsc3[N+](=O)[O-])CC2)c1`, 11.2 µM [rising, partial curve, poor fit].
With `C=C1CCC(O)C/C1=C/C=C1\CCC[C@]2(C)[C@@H]([C@H](C)/C=C/[C@H](C)C(C)C)CC[C@@H]12` (stereo not given in full), the AC50 by setting is: under setting [2], 12.6 µM [rising, partial curve, poor fit]; under setting [1], 0.0316 µM [rising, full curve, poor fit].
With `CCN(C(=O)c1ccc(C(C)(C)C)cc1)c1nnc(Cn2nnc3ccccc32)s1`, the half-maximal activity concentration (AC50) was 0.158 µM [rising, full curve] under setting [2] and 0.708 µM [rising, full curve] under setting [1].
On to `C=CCOc1ccc(C2C(C#N)=C(N)N(Nc3ccccc3)C3=C2C(=O)CC(C)(C)C3)cc1OC` (stereo not given), for which the concentration at half-maximal activity (AC50) is, setting by setting: under setting [2], 35.5 µM [falling, single point]; under setting [1], 28.2 µM [falling, single point].
Take `CSc1ccccc1C(=O)NCc1ccccc1C`: the AC50 under setting [2] was 0.126 µM [falling, full curve, poor fit] and the AC50 under setting [1] was 0.0891 µM [falling, full curve, poor fit].
As for `COc1ccc(C(=O)/C(=C\c2sccc2C)c2nc3ccccc3o2)cc1`, the AC50 by setting is: under setting [2], 35.5 µM [rising, single point]; under setting [1], 35.5 µM [rising, single point].
As to `CCOc1cc(CNc2ccc(N3CCCC3)cc2)cc(Cl)c1OC`, the AC50 runs as follows: under setting [2], 31.6 µM [rising, single point]; under setting [1], 31.6 µM [rising, single point].
Turning to `COc1ccc(NC(=O)Nc2nccs2)cc1`, under setting [1], the AC50 is 2.82 µM [rising, partial curve].
As to `CS(=O)(=O)c1ccc(C(=O)OCC(=O)NC23CC4CC(CC(C4)C2)C3)cc1[N+](=O)[O-]`, the concentration at half-maximal activity (AC50) under setting [1] was 31.6 µM [rising, single point].
Take `Cc1ccc2cc(C3C(C#N)=C(N)Oc4c3ccc3cccnc43)c(=O)[nH]c2c1` (stereo not given): the half-maximal activity concentration (AC50) was 17.8 µM [falling, single point] under setting [2] and 28.2 µM [falling, single point] under setting [1].
As to `O=c1oc2ccc3ccccc3c2cc1-c1nnc(-c2ccccc2)o1`, the AC50 under setting [2] is 25.1 µM [rising, single point].
For the compound `COc1ccc(OC)c(C2C3CN(C(C)C)CC=C3C(C#N)=C(N)C2(C#N)C#N)c1` (stereo not given), under setting [1], the concentration at half-maximal activity (AC50) is 35.5 µM [rising, single point].
On to `Cc1nc(SCc2ccc(Br)cc2)[nH]c(=O)c1C`, for which the concentration at half-maximal activity (AC50) under setting [1] is 12.6 µM [rising, partial curve].
Turning to `O=c1[nH]c(CCl)nc2cc(-c3ccc(Cl)cc3)sc12`, the half-maximal activity concentration (AC50) under setting [1] was 20 µM [rising, single point].
As to `O=C(O)C1=CCCN(CCON=C(c2ccccc2)c2ccccc2)C1`, the AC50 under setting [1] is 5.62 µM [rising, single point].
The same measure, in the same setting: as for `O=C(CSC1=NCCS1)Nc1ccnc2ccccc12`, the figure is 7.94 µM [rising, partial curve].
As to `O=C(CN(C1CCCCC1)S(=O)(=O)c1ccc(F)cc1)Nc1ccc2c(c1)OCO2`, the AC50 under setting [2] was 35.5 µM [rising, single point] and the AC50 under setting [1] is 35.5 µM [rising, single point].
As to `N#CCc1ccc(NC(=O)Nc2cccc(Cl)c2)cc1`, the AC50 under setting [2] is 20 µM [rising, partial curve, poor fit] and the concentration at half-maximal activity (AC50) under setting [1] was 22.4 µM [rising, single point].
For `CCOC(=O)N1CCC(NS(=O)(=O)c2cc(Br)cc3c2N(C(=O)CC)CC3)CC1`, the half-maximal activity concentration (AC50) under setting [1] was 35.5 µM [rising, single point].
With `CCSc1nnc(NC(=O)CSc2nccn2-c2cccc(C)c2C)s1`, the AC50 reads like this: under setting [2], 12.6 µM [rising, partial curve]; under setting [1], 11.2 µM [rising, partial curve].
Take `CCc1nnc(NC(=O)c2sc3nc4c(cc3c2N)CCCCCC4)s1`: the AC50 under setting [1] was 0.282 µM [rising, full curve].
With `COc1ccc2nc(NC(=O)[C@@H]3CCCN3C(=O)c3cccs3)sc2c1`, the AC50 is 35.5 µM [rising, single point] under setting [2] and 35.5 µM [rising, single point] under setting [1].
Consider `Cc1ccc(C(C[N+](=O)[O-])c2c(-c3ccccc3O)[nH][nH]c2=O)cc1` (stereo not given), for which the concentration at half-maximal activity (AC50) by setting is: under setting [2], 31.6 µM [falling, single point]; under setting [1], 35.5 µM [falling, single point].
As to `COCCNC(=O)C(C)OC(=O)C1=Cc2ccccc2OC1` (stereo not given), under setting [2], the AC50 is 4.47 µM [rising, partial curve, poor fit].
With `CCCCNC(=O)C1CCC(CNS(=O)(=O)c2ccc(C)cc2)CC1` (stereo not given), the concentration at half-maximal activity (AC50) is, setting by setting: under setting [2], 20 µM [falling, single point]; under setting [1], 20 µM [falling, partial curve, poor fit].
As to `O=C(COC(=O)C(Cc1c[nH]c2ccccc12)NC(=O)c1ccc(Cl)cc1)c1ccc(Cl)cc1` (stereo not given), the AC50 under setting [2] was 28.2 µM [falling, partial curve, poor fit].
Take `Cc1cc(C)c(NC(=O)CCn2c(=O)c3cccn3c3ccccc32)c(C)c1`: the AC50 is, setting by setting: under setting [2], 0.00501 µM [falling, full curve, poor fit]; under setting [1], 0.178 µM [falling, full curve, poor fit].
For the compound `COc1ccc(NC(=O)C(OC)c2ccccc2)cc1Cl` (stereo not given), the AC50 runs as follows: under setting [2], 10 µM [rising, single point]; under setting [1], 31.6 µM [rising, single point].
Regarding `CCOC(=O)c1c(C)nc2c(c1-c1ccc(Cl)cc1)C(=O)CC(C)(C)C2`, the AC50 under setting [1] is 35.5 µM [rising, single point].
As for `CCOc1ccc(CCn2c(-c3ccco3)nc3ccccc3c2=O)cc1OCC`, the AC50 reads like this: under setting [2], 0.224 µM [falling, full curve]; under setting [1], 11.2 µM [rising, partial curve].
As for `CCCCCCOc1ccc(N2C(=O)CC(N3CCN(CCN=CC4=C(O)CC(C)(C)CC4=O)CC3)C2=O)cc1` (stereo not given), under setting [1], the AC50 was 0.0891 µM [falling, full curve, poor fit].
Still for that read-out and setting: as for `Cc1cccc(NC(=S)/N=C(\N)Nc2nc(C)c3cc(C)ccc3n2)c1`, the figure is 0.00447 µM [rising, full curve, poor fit].
